The list shows a part of the results.

Compound in the first assay: C#Cc1cccc(Nc2ncnc3cc(OCCOC)c(OCCOC)cc23)c1 [erlotinib]
The experiment in a line: log2 fold change, soluble protein after heating vs DMSO (PISA); higher = thermal stabilisation; K562 lysate, 10 uM; active = over 0.2 and 3.5 SD of the protein, either way, in both replicates (recomputed). In a few lines: (§1)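 To prepare the extract, K562 pellets were dounce-homogenised in PBS pH 7.4 with 1 mM MgCl2, giving crude material at 1 mg/mL protein. This was treated with 10 μM compound for 30 min, then heated in aliquots for 3 min over 48°C-58°C before pooling and addition of NP-40 to 0.5% at 4°C. Centrifugation at 21,000xg for 90 min left soluble protein in the supernatant, which TMTpro 16plex LC-MS/MS quantified with equalised channel sums. Results are log-two fold changes in thermal stability compared with solvent controls, from duplicates.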
For USB1 (UniProt Q9BQ65), the log2 fold change is inactive: 0.216. On the same count and under the same terms, next, UTP23 (UniProt Q9BRU9): inactive: 0.032; USP12 (UniProt O75317): inactive: -0.064. The same measure, in the same setting: next, VGLL4 isoform 4 (UniProt Q14135): inactive: 0.004. Same read-out and setting: then UQCR10 (UniProt Q9UDW1), with inactive: -0.022; and UTRN isoform 2 (UniProt P46939), with inactive: -0.222.

UNG (UniProt P13051): the log2 fold change is inactive: -0.186.

As for UPF3A (UniProt Q9H1J1), the log2 fold change was inactive: 0.054. As for USP30 (UniProt Q70CQ3), the log2 fold change is inactive: 0.144. Still for that read-out and setting: next, UNC119 (UniProt Q13432): inactive: -0.041. Regarding URI1 isoform 4 (UniProt O94763), the log2 fold change was inactive: -0.021. Same read-out and setting: then VANGL2 (UniProt Q9ULK5), with inactive: 0.111.

Turning to VCX3B (UniProt Q9H321), the log2 fold change is inactive: -0.066. Same read-out and setting: then VCPKMT (UniProt Q9H867), with inactive: 0.157; and USF3 (UniProt Q68DE3), with inactive: 0.025. On the same count and under the same terms, next, ULK1 (UniProt O75385): inactive: 0.014; UNC13A (UniProt Q9UPW8): inactive: 0.069.

For the target VASN (UniProt Q6EMK4), the log2 fold change is active: -0.644. The same measure, in the same setting: then USP40 isoform 3 (UniProt Q9NVE5), with inactive: 0.045; and VGF (UniProt O15240), with inactive: 0.213; and USP20 (UniProt Q9Y2K6), with inactive: 0.024.

Compound in another assay: C/C(=N\NC(=O)C1=CC(=CC=C1)S(=O)(=O)N2CCOCC2)/C3=C(C=CC(=C3)Cl)O
Described as above. Summed up:
as §1
For the target USB1 (UniProt Q9BQ65), the log2 fold change is inactive: 0.015. On the same count and under the same terms, then VAV2 (UniProt P52735), with inactive: 0.065; and URB2 (UniProt Q14146), with inactive: -0.084. On the same count and under the same terms, then USP6NL isoform 2 (UniProt Q92738), with inactive: -0.233. Still for that read-out and setting: next, USP12 (UniProt O75317): inactive: 0.137; USP36 (UniProt Q9P275): inactive: -0.026. UHRF2 (UniProt Q96PU4): the log2 fold change was inactive: -0.132. Same read-out and setting: next, UQCR10 (UniProt Q9UDW1): inactive: -0.02. Turning to UNKL (UniProt E9PDK2), the log2 fold change was inactive: -0.088.

Regarding URGCP (UniProt Q8TCY9), the log2 fold change is inactive: -0.024.

As for USP38 (UniProt Q8NB14), the log2 fold change is inactive: -0.079.

For the target USP37 (UniProt Q86T82), the log2 fold change was inactive: 0.229. As for ULK1 (UniProt O75385), the log2 fold change is inactive: -0.073. As to UCP2 (UniProt P55851), the log2 fold change was inactive: 0.217. The same measure, in the same setting: next, UTP11 (UniProt Q9Y3A2): inactive: -0.005; VGF (UniProt O15240): inactive: 0.105; UROD (UniProt H0Y5R6): inactive: -0.053.

The record behind these values is the supplement of paper PMC10849652.
